The data set can be described thus: general procedure: peptide synthesis; DIC/HOBt; DCC.

The source of these data is US7115566B2 (University of Florida, priority 1997, dated 2006).

Mono-Boc-Sandostatin yielded a step yield (late stage modification step) of 80.3%.

For the setting “coupling step”, Nic-Pro-Pro-(Mono-Boc-Sandostatin) gave a step yield of 64.7%.
